From patent US20150065447A1, “SURVIVAL BENEFIT IN PATIENTS WITH SOLID TUMORS WITH ELEVATED C-REACTIVE PROTEIN LEVELS” (Incyte Corporation, priority 2013, published 2015)
For at least one compound, name, drawing or mass did not settle the structure.

Tested on: Subjects with metastatic pancreatic adenocarcinoma that is recurrent or treatment refractory
Assay: Randomized, double-blind study of capecitabine + ruxolitinib phosphate vs capecitabine + placebo, survival by baseline CRP / mGPS
Conditions: waterfall plot; patients with at least 1 postbaseline tumor assessment

## N#CC[C@H](C1CCCC1)n1cc(-c2ncnc3[nH]ccc23)cn1 [Ruxolitinib, ruxolitinib]
  change in tumor burden (RECIST v1.1), best response to therapy: more likely to show tumor shrinkage or stabilization
